Source: patent publication US9988635B2, “Modulation of growth hormone receptor expression and insulin-like growth factor expression” (Antisense Therapeutics Limited, priority 2003, dated 2018)
Not every detail of the peptide structures is certain; ends, links or a residue may be inferred.

Test system: serum insulin-like growth factor-I
Experiment: Serum IGF-I by radioimmunoassay, 1 week pilot study in Balb/C(a) mice
Assay type: in vivo, mouse
Method: Forty male Balb/C(a) mice weighing 9 to […] were placed into cages, 4 animals per cage, and allowed to assimilate into their environment with new littermates ˜1 week prior (Day −7) to the commencement of 1 week study. Mice of this age would be at their maximum growth rate. Their body weights were measured and recorded every second day during this period. When mice weighed 11 g (day −2), a blood sample was collected under anesthesia as described below, and a serum IGF-I assay was performed to determine pre-treatment values and to aid in the assigning of mice to treatment groups in order to reduce animal variability. […]
Saline, antisense, mismatch control and octreotide samples were prepared, and coded for blinding. […] They had access to a pre-determined quantity of standard mouse food and water at all times throughout the experiment. […] At day 0 and before treatment on each day or second day, the animals had their body weight and food intake measured, enabling the correct dose of agent to be administered. The animals were monitored closely for any changes in fur, skin, eye, locomotion or other changes in behavior. […] Every second day from day −7 to day 7 body weight and food intake were measured. […]

C[C@@H](O)[C@@H]1NC(=O)[C@H](CCCCN)NC(=O)[C@@H](Cc2c[nH]c3ccccc23)NC(=O)[C@H](Cc2ccccc2)NC(=O)[C@@H](NC(=O)[C@H](N)Cc2ccccc2)CSSC[C@@H](C(=O)N[C@H](CO)[C@@H](C)O)NC1=O [Octreotide, octreotide]
IGF-I (ng/ml) Day 7 (octreotide 25 μg/kg twice per day, 1 week): 114.34 ± 41.36 ng/mL | IGF-I (ng/ml) Day −2 (pre-treatment value, octreotide 25 μg/kg twice per day group): 199.72 ± 44.47 ng/mL
